These are yes or no findings as the source states them, for the method shown. In cells and extracts the contact can be indirect. Some binding calls cover weakened binding; strength is not graded here. Sequences can lack the tags named with a protein.
B1: mCherry-tagged mouse Tmc2 (HEK 293) (protein, UniProt Q8R4P4 1-888)
chain: MSPQLKSLDEEGDKSARRPTRKQTSRAACPQDGHRAQSSRKDPAKGSPRPGSSRKKQMEHGSYHKGLQGQKPRKVERSLQGRKKDRRTSLKEQRASPKKEREALRKEAGKQLRKPRSTSLGSSVSTGDSLSEEELAQILEQVEEKKKLITTVRNKPWPMAKKLRELREAQAFVEKYEGALGKGKGKHLYAYRMMMAKKWVKFKRDFDNFKTQCIPWEMKIKDIESHFGSSVASYFIFLRWMYGVNLVLFGLIFGLVIIPEVLMGMPYGSIPRKTVPRAEEERAMDFSVLWDFEGYIKYSALFYGYYNNQRTIGWLRYRLPMAYFMVGVSVFGYSLMIVIRSMASNTQGSTSEGDSDSFTFSFKMFTSWDYLIGNSETADNKYVSITTSFKESIVDEQESNKEGNIHLTRFLRVLANFLILCCLCGSGYLIYFVVKRSQEFSKMQNVSWYERNEVEIVMSLLGMFCPPLFETIAALENYHPRTGLKWQLGRIFALFLGNLYTFLLALMDDVHLKLSNEEKIKNITHWTLFNYYNSSGGNESVPRPPPHPADVPRGSCWETAVGIEFMRLTVSDMLVTYLTILVGDFLRACFVRFMNHCWCWDLEAGFPSYAEFDISGNVLGLIFNQGMIWMGSFYAPGLVGINVLRLLTSMYFQCWAVMSSNVPHERVFKASRSNNFYMGLLLLVLFLSLLPVAYTVMSLPPSFDCGPFSGKNRMYDVLHETIENDFPKFLGKIFAFLANPGLIIPAILLMFLAIYYLNSVSKSLSRANAQLRKKIQALREVEKNHKSIKGKAIVTYSEDTIKNSSKNATQIHLTKEEPTSHSSSQIQTLDKKAQGPHTSSTEGGASPSTSWHHVGSQPPRGRRDSGQPQSQTYTGRSPSGKRTQRPHN
B2: Tmc1-mCherry fusion protein (Tmc1-mCherry transgenic mouse) (protein, UniProt Q8R4P5 1-757)
chain: MLQIQVEEKEEDTEESSSEEEEDKLPRRESLRPKRKRTRDVINEDDPEPEPEDEETRKAREKERRRRLRRGAEEEEEIDEEELERLKALLDENRQMIATVKCKPWKMEKKIEVLKEAKKFVSENEGALGKGKGKKWFAFKMMMAKKWAKFLRDFENFKAACVPWENKIKAIESQFGSSVASYFLFLRWMYGVNMVLFVLTFSLIMLPEYLWGLPYGSLPRKTVPRAEEASAANFGVLYDFNGLAQYSVLFYGYYDNKRTIGWLNFRLPLSYFLVGIMCIGYSFLVVLKAMTKNIGDDGGGDDNTFNFSWKVFCSWDYLIGNPETADNKFNSITMNFKEAIIEERAAQVEENIHLIRFLRFLANFFVFLTLGASGYLIFWAVKRSQEFAQQDPDTLGWWEKNEMNMVMSLLGMFCPTLFDLFAELEDYHPLIALKWLLGRIFALLLGNLYVFILALMDEINNKIEEEKLVKANITLWEANMIKAYNESLSGLSGNTTGAPFFVHPADVPRGPCWETMVGQEFVRLTVSDVLTTYVTILIGDFLRACFVRFCNYCWCWDLEYGYPSYTEFDISGNVLALIFNQGMIWMGSFFAPSLPGINILRLHTSMYFQCWAVMCCNVPEARVFKASRSNNFYLGMLLLILFLSTMPVLYMIVSLPPSFDCGPFSGKNRMFEVIGETLEHDFPSWMAKILRQLSNPGLVIAVILVMVLTIYYLNATAKGQKAANLDLKKKMKQQALENKMRNKKMAAARAAAAAGGQ
B3: mCherry-tagged mouse Tmc1 (HEK 293) (protein, UniProt Q8R4P5 1-757)
chain: B2 chain

The chains behind the UniProt entries cited, without tags or fusion partners.
UniProt E2JF22: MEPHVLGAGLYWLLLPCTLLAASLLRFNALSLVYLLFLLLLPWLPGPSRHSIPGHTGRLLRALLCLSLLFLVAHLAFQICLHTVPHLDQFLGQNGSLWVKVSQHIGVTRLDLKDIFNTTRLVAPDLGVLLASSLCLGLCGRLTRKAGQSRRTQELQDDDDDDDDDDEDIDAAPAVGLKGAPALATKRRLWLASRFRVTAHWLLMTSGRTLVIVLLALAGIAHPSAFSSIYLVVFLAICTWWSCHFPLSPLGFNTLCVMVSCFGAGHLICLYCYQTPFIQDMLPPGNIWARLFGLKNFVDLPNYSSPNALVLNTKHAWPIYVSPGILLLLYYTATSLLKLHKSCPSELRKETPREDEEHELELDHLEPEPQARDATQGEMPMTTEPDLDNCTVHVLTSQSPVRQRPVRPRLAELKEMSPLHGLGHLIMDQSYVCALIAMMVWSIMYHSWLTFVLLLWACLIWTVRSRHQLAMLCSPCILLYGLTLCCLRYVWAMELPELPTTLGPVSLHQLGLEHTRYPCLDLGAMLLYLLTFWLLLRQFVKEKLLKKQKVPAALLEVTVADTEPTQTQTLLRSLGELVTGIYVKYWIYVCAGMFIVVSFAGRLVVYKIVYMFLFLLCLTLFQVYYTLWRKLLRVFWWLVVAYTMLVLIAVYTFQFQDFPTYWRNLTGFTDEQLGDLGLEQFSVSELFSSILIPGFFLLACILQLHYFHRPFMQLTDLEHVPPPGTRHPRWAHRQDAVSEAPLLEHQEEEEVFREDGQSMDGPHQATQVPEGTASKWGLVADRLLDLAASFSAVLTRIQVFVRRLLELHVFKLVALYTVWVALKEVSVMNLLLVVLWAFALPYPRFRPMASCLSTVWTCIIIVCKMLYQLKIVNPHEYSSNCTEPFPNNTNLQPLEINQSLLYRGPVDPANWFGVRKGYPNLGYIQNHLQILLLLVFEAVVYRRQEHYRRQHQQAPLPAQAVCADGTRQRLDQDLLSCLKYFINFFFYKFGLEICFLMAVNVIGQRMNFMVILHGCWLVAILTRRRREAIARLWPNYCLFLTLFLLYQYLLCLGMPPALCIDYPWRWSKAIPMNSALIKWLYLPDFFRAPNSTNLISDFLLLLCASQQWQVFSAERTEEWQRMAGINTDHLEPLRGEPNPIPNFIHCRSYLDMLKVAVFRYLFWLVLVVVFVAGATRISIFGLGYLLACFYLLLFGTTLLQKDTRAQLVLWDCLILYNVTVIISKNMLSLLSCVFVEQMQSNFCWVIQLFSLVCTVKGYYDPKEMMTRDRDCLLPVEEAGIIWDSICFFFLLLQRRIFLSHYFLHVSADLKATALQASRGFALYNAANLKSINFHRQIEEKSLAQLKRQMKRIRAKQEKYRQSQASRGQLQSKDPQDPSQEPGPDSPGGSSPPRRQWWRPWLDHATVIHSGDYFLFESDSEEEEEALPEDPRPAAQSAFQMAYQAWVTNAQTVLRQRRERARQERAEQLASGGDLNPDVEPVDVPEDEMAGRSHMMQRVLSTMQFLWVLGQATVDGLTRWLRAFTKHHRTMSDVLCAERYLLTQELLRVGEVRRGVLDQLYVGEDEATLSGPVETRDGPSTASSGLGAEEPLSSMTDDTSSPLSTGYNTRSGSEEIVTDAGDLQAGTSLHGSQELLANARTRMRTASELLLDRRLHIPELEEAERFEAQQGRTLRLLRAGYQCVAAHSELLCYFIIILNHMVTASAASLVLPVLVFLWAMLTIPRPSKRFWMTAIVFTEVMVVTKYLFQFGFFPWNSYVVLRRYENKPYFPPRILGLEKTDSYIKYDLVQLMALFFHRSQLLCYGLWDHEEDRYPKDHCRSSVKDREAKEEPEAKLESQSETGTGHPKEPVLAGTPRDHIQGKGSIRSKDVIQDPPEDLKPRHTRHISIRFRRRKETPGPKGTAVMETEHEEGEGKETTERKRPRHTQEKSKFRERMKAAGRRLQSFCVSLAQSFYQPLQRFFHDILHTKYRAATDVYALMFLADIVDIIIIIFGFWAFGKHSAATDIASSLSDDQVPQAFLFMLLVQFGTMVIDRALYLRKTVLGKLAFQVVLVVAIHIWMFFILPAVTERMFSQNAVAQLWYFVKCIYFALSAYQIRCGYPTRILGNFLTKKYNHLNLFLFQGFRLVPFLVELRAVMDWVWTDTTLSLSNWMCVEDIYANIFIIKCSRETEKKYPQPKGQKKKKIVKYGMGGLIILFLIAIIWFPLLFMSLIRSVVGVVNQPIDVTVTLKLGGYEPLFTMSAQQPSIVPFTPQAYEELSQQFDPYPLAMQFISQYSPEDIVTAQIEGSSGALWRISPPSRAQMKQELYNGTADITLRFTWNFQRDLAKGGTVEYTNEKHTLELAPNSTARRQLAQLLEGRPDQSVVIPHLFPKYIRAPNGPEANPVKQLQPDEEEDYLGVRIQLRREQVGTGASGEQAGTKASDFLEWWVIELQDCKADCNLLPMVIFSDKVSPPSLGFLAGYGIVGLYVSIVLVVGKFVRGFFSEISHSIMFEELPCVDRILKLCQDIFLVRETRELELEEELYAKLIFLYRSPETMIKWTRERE
UniProt Q8CD54: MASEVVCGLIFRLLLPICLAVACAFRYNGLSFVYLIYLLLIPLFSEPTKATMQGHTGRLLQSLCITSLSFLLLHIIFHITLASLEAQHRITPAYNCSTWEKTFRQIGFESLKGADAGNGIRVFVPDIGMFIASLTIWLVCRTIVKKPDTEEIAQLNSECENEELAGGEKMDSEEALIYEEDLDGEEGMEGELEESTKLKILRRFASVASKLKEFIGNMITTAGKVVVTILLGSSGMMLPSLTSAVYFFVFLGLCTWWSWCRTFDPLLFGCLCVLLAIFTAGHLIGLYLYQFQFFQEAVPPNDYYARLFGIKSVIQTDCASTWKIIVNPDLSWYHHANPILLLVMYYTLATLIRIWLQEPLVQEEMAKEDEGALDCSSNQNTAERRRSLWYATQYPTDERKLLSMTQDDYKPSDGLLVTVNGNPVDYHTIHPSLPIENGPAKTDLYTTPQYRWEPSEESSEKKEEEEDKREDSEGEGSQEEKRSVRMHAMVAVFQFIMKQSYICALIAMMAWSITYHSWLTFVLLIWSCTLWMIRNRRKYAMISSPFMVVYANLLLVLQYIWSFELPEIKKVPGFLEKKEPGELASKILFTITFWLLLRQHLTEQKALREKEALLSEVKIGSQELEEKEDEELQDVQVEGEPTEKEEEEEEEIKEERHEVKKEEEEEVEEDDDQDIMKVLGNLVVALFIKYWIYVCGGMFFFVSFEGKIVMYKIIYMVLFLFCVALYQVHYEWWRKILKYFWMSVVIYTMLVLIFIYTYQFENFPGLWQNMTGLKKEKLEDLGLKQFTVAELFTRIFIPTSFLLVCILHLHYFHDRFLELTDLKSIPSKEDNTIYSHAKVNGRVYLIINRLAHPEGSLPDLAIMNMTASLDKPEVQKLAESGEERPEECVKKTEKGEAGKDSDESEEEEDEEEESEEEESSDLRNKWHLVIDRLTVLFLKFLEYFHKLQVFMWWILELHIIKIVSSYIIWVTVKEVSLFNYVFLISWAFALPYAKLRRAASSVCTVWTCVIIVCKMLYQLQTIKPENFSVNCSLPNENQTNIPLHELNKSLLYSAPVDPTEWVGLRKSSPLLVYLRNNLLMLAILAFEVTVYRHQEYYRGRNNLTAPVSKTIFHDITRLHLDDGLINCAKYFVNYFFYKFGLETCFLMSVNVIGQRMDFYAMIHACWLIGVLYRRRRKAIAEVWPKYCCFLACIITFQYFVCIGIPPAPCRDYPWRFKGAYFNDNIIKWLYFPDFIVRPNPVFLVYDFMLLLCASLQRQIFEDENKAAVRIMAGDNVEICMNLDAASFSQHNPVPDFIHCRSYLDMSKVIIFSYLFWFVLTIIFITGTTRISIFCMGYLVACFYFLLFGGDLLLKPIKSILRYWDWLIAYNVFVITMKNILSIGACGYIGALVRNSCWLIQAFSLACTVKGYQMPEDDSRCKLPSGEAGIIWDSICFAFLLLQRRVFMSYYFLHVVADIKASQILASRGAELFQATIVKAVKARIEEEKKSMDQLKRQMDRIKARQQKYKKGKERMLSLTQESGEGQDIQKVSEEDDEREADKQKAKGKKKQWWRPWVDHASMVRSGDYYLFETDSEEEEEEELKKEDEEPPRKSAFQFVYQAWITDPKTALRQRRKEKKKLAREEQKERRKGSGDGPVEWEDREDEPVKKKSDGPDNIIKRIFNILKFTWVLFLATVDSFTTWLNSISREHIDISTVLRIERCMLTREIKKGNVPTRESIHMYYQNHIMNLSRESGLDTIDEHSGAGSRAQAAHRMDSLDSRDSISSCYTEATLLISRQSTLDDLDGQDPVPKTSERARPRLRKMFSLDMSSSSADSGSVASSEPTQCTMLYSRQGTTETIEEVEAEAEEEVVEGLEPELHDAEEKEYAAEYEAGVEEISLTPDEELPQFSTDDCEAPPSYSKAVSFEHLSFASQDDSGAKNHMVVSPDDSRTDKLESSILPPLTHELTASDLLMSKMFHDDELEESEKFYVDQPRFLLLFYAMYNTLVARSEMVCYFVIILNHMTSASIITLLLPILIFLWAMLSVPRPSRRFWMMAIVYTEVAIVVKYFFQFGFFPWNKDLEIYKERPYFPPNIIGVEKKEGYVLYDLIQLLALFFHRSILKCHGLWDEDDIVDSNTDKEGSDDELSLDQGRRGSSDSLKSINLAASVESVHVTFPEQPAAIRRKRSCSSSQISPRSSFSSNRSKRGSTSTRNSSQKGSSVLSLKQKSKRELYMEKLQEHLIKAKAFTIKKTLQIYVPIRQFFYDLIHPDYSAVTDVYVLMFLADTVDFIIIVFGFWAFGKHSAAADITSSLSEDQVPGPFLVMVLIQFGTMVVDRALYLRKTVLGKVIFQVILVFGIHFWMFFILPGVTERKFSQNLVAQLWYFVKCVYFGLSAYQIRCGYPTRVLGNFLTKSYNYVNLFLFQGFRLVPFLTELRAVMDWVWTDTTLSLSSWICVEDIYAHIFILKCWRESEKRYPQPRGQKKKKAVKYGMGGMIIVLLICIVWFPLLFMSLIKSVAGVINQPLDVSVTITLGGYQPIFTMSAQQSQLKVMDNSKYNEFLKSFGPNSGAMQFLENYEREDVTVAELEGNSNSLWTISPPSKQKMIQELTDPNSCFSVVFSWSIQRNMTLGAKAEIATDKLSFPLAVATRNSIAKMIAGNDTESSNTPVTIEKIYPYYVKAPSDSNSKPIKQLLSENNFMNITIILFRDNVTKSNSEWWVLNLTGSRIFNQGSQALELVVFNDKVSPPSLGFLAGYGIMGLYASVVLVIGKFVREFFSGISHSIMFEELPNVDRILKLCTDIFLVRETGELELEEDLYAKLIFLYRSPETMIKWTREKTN

How the values were obtained:
[1] = target: FLAG-tagged mouse Pz1 (Flag-mPz1) (mouse) (UniProt E2JF22); assay: co-IP; lysates of HEK 293 cells co-transfected with Pz1-FLAG and one tagged partner, harvested 48 h after transfection, antibody on Dynabeads Protein G, 20 min at RT, Western blot with antibodies to the tags
[2] = target: Piezo2-GFP fusion protein (Pz2-GFP mouse) (mouse) (UniProt Q8CD54); assay: co-IP; cochlear tissue lysates of Tmc2-AcGFP:Pz1-tdT and Tmc1-mCherry:Pz2-GFP mice, GFP antibody overnight at 4 C, Dynabeads Protein G, immunoblot with anti-tdTomato or anti-mCherry

Binder	binding [1]	binding [2]
B1	binds	–
B2	–	binds
B3	binds	–

Source: PMC10371147
